Assay results: patent publication US20130224202A1
Results are given in words; binding and its absence hold for the method and conditions named. Some results given as binding are weak or reduced against the parent protein; the word gives no strength.

Assays:
[1] = molecular target: T1, recombinant chimeric CD133 antigen (human) (UniProt O43490); experiment: ELISA of hybridoma supernatants against recombinant CD133; Hybridoma Clone 7 is one of the screened hybridomas
T1 sequence: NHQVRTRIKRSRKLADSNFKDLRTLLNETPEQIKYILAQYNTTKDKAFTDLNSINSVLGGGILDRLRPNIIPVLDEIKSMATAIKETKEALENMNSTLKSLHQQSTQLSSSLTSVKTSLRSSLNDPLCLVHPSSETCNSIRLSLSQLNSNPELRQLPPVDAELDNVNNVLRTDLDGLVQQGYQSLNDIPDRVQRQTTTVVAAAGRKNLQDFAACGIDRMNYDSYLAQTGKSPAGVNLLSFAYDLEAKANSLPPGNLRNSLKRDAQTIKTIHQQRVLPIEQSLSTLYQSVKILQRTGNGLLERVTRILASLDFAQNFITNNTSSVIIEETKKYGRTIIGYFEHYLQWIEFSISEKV

[2] = molecular target: T2, human CD133 (human) (UniProt O43490); experiment: flow cytometry on U87 cells transfected with human CD133 cDNA
T2 sequence: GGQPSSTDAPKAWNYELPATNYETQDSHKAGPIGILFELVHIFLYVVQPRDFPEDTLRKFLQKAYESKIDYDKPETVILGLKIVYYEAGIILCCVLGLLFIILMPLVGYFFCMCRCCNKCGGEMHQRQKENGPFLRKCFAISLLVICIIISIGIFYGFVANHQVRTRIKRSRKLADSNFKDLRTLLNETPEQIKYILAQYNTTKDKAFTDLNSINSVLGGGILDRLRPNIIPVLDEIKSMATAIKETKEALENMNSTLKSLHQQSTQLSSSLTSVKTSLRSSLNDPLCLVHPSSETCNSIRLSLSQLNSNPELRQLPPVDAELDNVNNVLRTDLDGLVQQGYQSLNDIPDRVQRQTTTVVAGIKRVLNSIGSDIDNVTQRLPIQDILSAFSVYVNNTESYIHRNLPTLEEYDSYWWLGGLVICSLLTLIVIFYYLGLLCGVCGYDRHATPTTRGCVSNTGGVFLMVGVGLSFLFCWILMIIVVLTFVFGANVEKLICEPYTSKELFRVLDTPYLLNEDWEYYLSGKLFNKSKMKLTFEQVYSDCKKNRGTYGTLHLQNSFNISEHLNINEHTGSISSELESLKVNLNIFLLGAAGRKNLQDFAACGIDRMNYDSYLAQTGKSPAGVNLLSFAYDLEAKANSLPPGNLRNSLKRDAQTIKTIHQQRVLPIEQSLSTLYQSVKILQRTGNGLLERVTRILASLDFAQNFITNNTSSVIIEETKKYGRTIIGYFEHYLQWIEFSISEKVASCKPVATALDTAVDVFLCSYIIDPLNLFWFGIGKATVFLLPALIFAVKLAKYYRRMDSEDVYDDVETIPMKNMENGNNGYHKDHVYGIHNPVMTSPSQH

[3] = molecular target: T2, human CD133 (human); experiment: Western blot of Caco-2 lysate with hybridoma supernatant
[4] = molecular target: T2, human CD133 (human); experiment: immunofluorescence on fixed CD133+ Caco-2 cells
[5] = molecular target: T2, human CD133 (human); experiment: flow cytometry
[6] = molecular target: T2, human CD133 (human); experiment: immunohistochemistry on human glioma and kidney tissue sections
[7] = molecular target: T2, human CD133 (human); experiment: Western blot of lysates of tunicamycin-treated Caco-2 cells
[8] = molecular target: T2, human CD133 (human); experiment: flow cytometry on Caco-2 and GBM6 cells
[9] = molecular target: T2, human CD133 (human); experiment: flow cytometry on HEK293-TLR2 cells transfected with CD133
[10] = molecular target: T2, human CD133 (human); experiment: flow cytometry on HEK293-TLR2 cells transfected with CD133, figure legend

Measured: binding

B1: monoclonal antibody produced by Hybridoma Clone 7 (antibody, V domains shown)
VH: EVKLVESGPELKKPGETVKISCKASGYTFTDYSMHWVNQAPGKGLKWMGWINTETGEPSYADDFKGRFAFSLETSASTAYLQINNLKNEDTATYFCATDYGDYFDYWGQGTTLTVSS
VL: DIVLSQSPAIMSASPGEKVTISCSASSSVSYMYWYQQKPGSSPKPWIYRTSNLASGVPARFSGSGSGTSYSLTISSMEAEDAATYYCQQYHSYPPTFGAGTKLELK
not listed: [9] | [10]
binds: all other assays above

B2: FITC-labeled CD133scFv (scFv)
scFv: MDIVLSQSPAIMSASPGEKVTISCSASSSVSYMYWYQQKPGSSPKPWIYRTSNLASGVPARFSGSGSGTSYSLTISSMEAEDAATYYCQQYHSYPPTFGAGTKLELKSSGGGGSGGGGGGSSRSSLEVKLVESGPELKKPGETVKISCKASGYTFTDYSMHWVNQAPGKGLKWMGWINTETGEPSYADDFKGRFAFSLETSASTAYLQINNLKNEDTATYFCATDYGDYFDYWGQGTTLTVSS
binds: [9] | [10]
